From article PMC12152899, “Disulfide-mediated tetramerization of TRAP1 fosters its antioxidant and pro-neoplastic activities” (Redox Biology, 2025)
These are yes or no findings as the source states them, for the method shown. Some binding calls cover weakened binding; strength is not graded here. For some of these results: Tags and fused reporters may be left off the sequences shown. Values belong to the binder of their own block, whether it stands above or below them.

Key:
[1] = target: WT HA-linked TRAP1 expressed in TRAP1-silenced (shTRAP1) HeLa cells (human) (UniProt Q12931); assay: non-reducing SDS-PAGE and Western blot; TRAP1-silenced HeLa cells expressing HA-linked TRAP1; 100 μM H2O2, 10 μM cisplatin, 100 μM BSO or 10 mM NAC (24 h), co-expression of SOD2 or M-CAT; anti-TRAP1 blot of lysates
[2] = target: recombinant human TRAP1 C501S (human) (UniProt Q12931); assay: non-reducing SDS-PAGE; as a1, H2O2-treated recombinant TRAP1 with DTT added (10 mM in the legend, 50 mM in the methods); both purified
[3] = target: HA-TRAP1 wild-type (human) expressed in TRAP1-KO sMPNST cells (human) (UniProt Q12931); assay: non-reducing SDS-PAGE and Western blot; mitochondrial extracts of TRAP1-KO sMPNST cells reconstituted with human TRAP1; basal, 1 mM diamide or 100 μM H2O2 for 30 min
[4] = target: HA-TRAP1 C261S/C573R mutant (human) expressed in TRAP1-KO sMPNST cells (human) (UniProt Q12931); assay: as above
[5] = target: recombinant human TRAP1 C527A (human) (UniProt Q12931); assay: non-reducing SDS-PAGE; as a1, H2O2-treated recombinant TRAP1 with DTT added (10 mM in the legend, 50 mM in the methods); both purified
[6] = target: C261S/C573R HA-linked TRAP1 expressed in TRAP1-silenced (shTRAP1) HeLa cells (human) (UniProt Q12931); assay: non-reducing SDS-PAGE and Western blot; TRAP1-silenced HeLa cells expressing HA-linked TRAP1; 100 μM H2O2, 10 μM cisplatin, 100 μM BSO or 10 mM NAC (24 h), co-expression of SOD2 or M-CAT; anti-TRAP1 blot of lysates
[7] = target: endogenous TRAP1 of mouse malignant peripheral nerve sheath tumor (sMPNST) cells (mouse (endogenous in sMPNST)) (UniProt Q9CQN1); assay: non-reducing SDS-PAGE and Western blot; sMPNST cells, endogenous TRAP1; mitochondrial extracts, basal or H2O2; cell extracts after hypoxia 2 h and reoxygenation 10 min

binding [1]: binds
B1: WT HA-linked TRAP1 expressed in TRAP1-silenced (shTRAP1) HeLa cells (protein, UniProt Q12931 60-704)
chain: STQTAEDKEEPLHSIISSTESVQGSTSKHEFQAETKKLLDIVARSLYSEKEVFIRELISNASDALEKLRHKLVSDGQALPEMEIHLQTNAEKGTITIQDTGIGMTQEELVSNLGTIARSGSKAFLDALQNQAEASSKIIGQFGVGFYSAFMVADRVEVYSRSAAPGSLGYQWLSDGSGVFEIAEASGVRTGTKIIIHLKSDCKEFSSEARVRDVVTKYSNFVSFPLYLNGRRMNTLQAIWMMDPKDVREWQHEEFYRYVAQAHDKPRYTLHYKTDAPLNIRSIFYVPDMKPSMFDVSRELGSSVALYSRKVLIQTKATDILPKWLRFIRGVVDSEDIPLNLSRELLQESALIRKLRDVLQQRLIKFFIDQSKKDAEKYAKFFEDYGLFMREGIVTATEQEVKEDIAKLLRYESSALPSGQLTSLSEYASRMRAGTRNIYYLCAPNRHLAEHSPYYEAMKKKDTEVLFCFEQFDELTLLHLREFDKKKLISVETDIVVDHYKEEKFEDRSPAAECLSEKETEELMAWMRNVLGSRVTNVKVTLRLDTHPAMVTVLEMGAARHFLRMQQLAKTQEERAQLLQPTLEINPRHALIKKLNQLRASEPGLAQLLVDQIYENAMIAAGLVDDPRAMVGRLNELLVKALERH

binding [2]: no binding (condition: with DTT)
B2: recombinant human TRAP1 C501S (natural protein, UniProt Q12931 60-704, looked up)
chain: STQTAEDKEEPLHSIISSTESVQGSTSKHEFQAETKKLLDIVARSLYSEKEVFIRELISNASDALEKLRHKLVSDGQALPEMEIHLQTNAEKGTITIQDTGIGMTQEELVSNLGTIARSGSKAFLDALQNQAEASSKIIGQFGVGFYSAFMVADRVEVYSRSAAPGSLGYQWLSDGSGVFEIAEASGVRTGTKIIIHLKSDCKEFSSEARVRDVVTKYSNFVSFPLYLNGRRMNTLQAIWMMDPKDVREWQHEEFYRYVAQAHDKPRYTLHYKTDAPLNIRSIFYVPDMKPSMFDVSRELGSSVALYSRKVLIQTKATDILPKWLRFIRGVVDSEDIPLNLSRELLQESALIRKLRDVLQQRLIKFFIDQSKKDAEKYAKFFEDYGLFMREGIVTATEQEVKEDIAKLLRYESSALPSGQLTSLSEYASRMRAGTRNIYYLSAPNRHLAEHSPYYEAMKKKDTEVLFCFEQFDELTLLHLREFDKKKLISVETDIVVDHYKEEKFEDRSPAAECLSEKETEELMAWMRNVLGSRVTNVKVTLRLDTHPAMVTVLEMGAARHFLRMQQLAKTQEERAQLLQPTLEINPRHALIKKLNQLRASEPGLAQLLVDQIYENAMIAAGLVDDPRAMVGRLNELLVKALERH
notes: Cloned in pET-26b(+); same construct as m1 with the mutation; source: E. coli BL21(DE3), purified (Ni-NTA)

binding [3]: binds
B3: HA-TRAP1 wild-type (human) expressed in TRAP1-KO sMPNST cells (protein, UniProt Q12931 60-704)
chain: STQTAEDKEEPLHSIISSTESVQGSTSKHEFQAETKKLLDIVARSLYSEKEVFIRELISNASDALEKLRHKLVSDGQALPEMEIHLQTNAEKGTITIQDTGIGMTQEELVSNLGTIARSGSKAFLDALQNQAEASSKIIGQFGVGFYSAFMVADRVEVYSRSAAPGSLGYQWLSDGSGVFEIAEASGVRTGTKIIIHLKSDCKEFSSEARVRDVVTKYSNFVSFPLYLNGRRMNTLQAIWMMDPKDVREWQHEEFYRYVAQAHDKPRYTLHYKTDAPLNIRSIFYVPDMKPSMFDVSRELGSSVALYSRKVLIQTKATDILPKWLRFIRGVVDSEDIPLNLSRELLQESALIRKLRDVLQQRLIKFFIDQSKKDAEKYAKFFEDYGLFMREGIVTATEQEVKEDIAKLLRYESSALPSGQLTSLSEYASRMRAGTRNIYYLCAPNRHLAEHSPYYEAMKKKDTEVLFCFEQFDELTLLHLREFDKKKLISVETDIVVDHYKEEKFEDRSPAAECLSEKETEELMAWMRNVLGSRVTNVKVTLRLDTHPAMVTVLEMGAARHFLRMQQLAKTQEERAQLLQPTLEINPRHALIKKLNQLRASEPGLAQLLVDQIYENAMIAAGLVDDPRAMVGRLNELLVKALERH

binding [4]: no binding
B4: HA-TRAP1 C261S/C573R mutant (human) expressed in TRAP1-KO sMPNST cells (protein, UniProt Q12931 60-704)
chain: STQTAEDKEEPLHSIISSTESVQGSTSKHEFQAETKKLLDIVARSLYSEKEVFIRELISNASDALEKLRHKLVSDGQALPEMEIHLQTNAEKGTITIQDTGIGMTQEELVSNLGTIARSGSKAFLDALQNQAEASSKIIGQFGVGFYSAFMVADRVEVYSRSAAPGSLGYQWLSDGSGVFEIAEASGVRTGTKIIIHLKSDSKEFSSEARVRDVVTKYSNFVSFPLYLNGRRMNTLQAIWMMDPKDVREWQHEEFYRYVAQAHDKPRYTLHYKTDAPLNIRSIFYVPDMKPSMFDVSRELGSSVALYSRKVLIQTKATDILPKWLRFIRGVVDSEDIPLNLSRELLQESALIRKLRDVLQQRLIKFFIDQSKKDAEKYAKFFEDYGLFMREGIVTATEQEVKEDIAKLLRYESSALPSGQLTSLSEYASRMRAGTRNIYYLCAPNRHLAEHSPYYEAMKKKDTEVLFCFEQFDELTLLHLREFDKKKLISVETDIVVDHYKEEKFEDRSPAAERLSEKETEELMAWMRNVLGSRVTNVKVTLRLDTHPAMVTVLEMGAARHFLRMQQLAKTQEERAQLLQPTLEINPRHALIKKLNQLRASEPGLAQLLVDQIYENAMIAAGLVDDPRAMVGRLNELLVKALERH

binding [5]: no binding (condition: with DTT)
B5: recombinant human TRAP1 C527A (natural protein, UniProt Q12931 60-704, looked up)
chain: STQTAEDKEEPLHSIISSTESVQGSTSKHEFQAETKKLLDIVARSLYSEKEVFIRELISNASDALEKLRHKLVSDGQALPEMEIHLQTNAEKGTITIQDTGIGMTQEELVSNLGTIARSGSKAFLDALQNQAEASSKIIGQFGVGFYSAFMVADRVEVYSRSAAPGSLGYQWLSDGSGVFEIAEASGVRTGTKIIIHLKSDCKEFSSEARVRDVVTKYSNFVSFPLYLNGRRMNTLQAIWMMDPKDVREWQHEEFYRYVAQAHDKPRYTLHYKTDAPLNIRSIFYVPDMKPSMFDVSRELGSSVALYSRKVLIQTKATDILPKWLRFIRGVVDSEDIPLNLSRELLQESALIRKLRDVLQQRLIKFFIDQSKKDAEKYAKFFEDYGLFMREGIVTATEQEVKEDIAKLLRYESSALPSGQLTSLSEYASRMRAGTRNIYYLCAPNRHLAEHSPYYEAMKKKDTEVLFAFEQFDELTLLHLREFDKKKLISVETDIVVDHYKEEKFEDRSPAAECLSEKETEELMAWMRNVLGSRVTNVKVTLRLDTHPAMVTVLEMGAARHFLRMQQLAKTQEERAQLLQPTLEINPRHALIKKLNQLRASEPGLAQLLVDQIYENAMIAAGLVDDPRAMVGRLNELLVKALERH
notes: as for B2

binding [6]: no binding
B6: C261S/C573R HA-linked TRAP1 expressed in TRAP1-silenced (shTRAP1) HeLa cells (protein, UniProt Q12931 60-704)
chain: STQTAEDKEEPLHSIISSTESVQGSTSKHEFQAETKKLLDIVARSLYSEKEVFIRELISNASDALEKLRHKLVSDGQALPEMEIHLQTNAEKGTITIQDTGIGMTQEELVSNLGTIARSGSKAFLDALQNQAEASSKIIGQFGVGFYSAFMVADRVEVYSRSAAPGSLGYQWLSDGSGVFEIAEASGVRTGTKIIIHLKSDSKEFSSEARVRDVVTKYSNFVSFPLYLNGRRMNTLQAIWMMDPKDVREWQHEEFYRYVAQAHDKPRYTLHYKTDAPLNIRSIFYVPDMKPSMFDVSRELGSSVALYSRKVLIQTKATDILPKWLRFIRGVVDSEDIPLNLSRELLQESALIRKLRDVLQQRLIKFFIDQSKKDAEKYAKFFEDYGLFMREGIVTATEQEVKEDIAKLLRYESSALPSGQLTSLSEYASRMRAGTRNIYYLCAPNRHLAEHSPYYEAMKKKDTEVLFCFEQFDELTLLHLREFDKKKLISVETDIVVDHYKEEKFEDRSPAAERLSEKETEELMAWMRNVLGSRVTNVKVTLRLDTHPAMVTVLEMGAARHFLRMQQLAKTQEERAQLLQPTLEINPRHALIKKLNQLRASEPGLAQLLVDQIYENAMIAAGLVDDPRAMVGRLNELLVKALERH

binding [7]: binds
B7: endogenous TRAP1 of mouse malignant peripheral nerve sheath tumor (sMPNST) cells (protein, UniProt Q9CQN1 61-706)
chain: STQAAEDKEEESLHSIISNTEAVRGSVSKHEFQAETKKLLDIVARSLYSEKEVFIRELISNASDALEKLRHKLVCEGQVLPEMEIHLQTDAKKGTITIQDTGIGMTQEELVSNLGTIARSGSKAFLEALQNQAETSSKIIGQFGVGFYSAFMVADKVEVYSRSAAPESPGYQWLSDGSGVFEIAEASGVRPGTKIIIHLKSDCKDFASESRVQDVVTKYSNFVSFPLYLNGKRINTLQAIWMMDPKDISEFQHEEFYRYIAQAYDKPRFTLHYKTDAPLNIRSIFYVPEMKPSMFDVSRELGSSVALYSRKVLIQTKAADILPKWLRFIRGVVDSEDIPLNLSRELLQESALIRKLRDVLQQRLIKFFIDQSKKDAEKYAKFFEDYGLFMREGIVTTAEQDIKEDIAKLLRYESSALPAGQLTSLPDYASRMQAGTRNIYYLCAPNRHLAEHSPYYEAMKQKHTEVLFCYEQFDELTLLHLREFDKKKLISVETDIVVDHYKEEKFEDTSPADERLSEKETEDLMAWMRNALGSRVTNVKVTFRLDTHPAMVTVLEMGAARHFLRMQQLAKTQEERAQLLQPTLEINPRHTLIKKLCQLRESEPELAQLLVDQIYENAMIAAGLVDDPRAMVGRLNDLLVKVLEKH
